From US20080096990A1, “Flame Retardant Polystyrene Foam Compositions” (priority 2004, published 2008) come the findings set out here.

The nature of the data set: LOI test of compression molded polystyrene/flame retardant blends, ASTM D 2863-87. The conditions noted are these: in GPPS.
The mark [1] stands for this setting: Wt % Loading 4.5%, Wt % Br 2.25%, no stabilizer.

On to `CN1C(=O)C2CC(Br)C(Br)CC2C1=O` (stereo not drawn) [III], for which the LOI came out at 24.3 under setting [1] and 25.2 (Wt % Loading 4.6%, Wt % Br 2.3%, 0.1% hydrotalcite stabilizer).

On to `O=C1NC(=O)C2CC(Br)C(Br)CC12` (stereo not drawn) [II], for which, under setting [1], the LOI is 25.0.
